Among the data in PubChem BioAssay AID2685 (National Center for Advancing Translational Sciences (NCATS), 2010) are cell number change and AC50 values, retold here.

The structures appear in SMILES notation. This is one part of the list. Shown are side measurements of this screen, not its main read-out; they come without a call. Most of these compounds were active or inconclusive in the main read-out, so they are no random draw. Potencies come from curve fits of mixed quality, noted in brackets.

A short description of the experiment: qHTS Assay for Lipid Storage Modulators in Drosophila S3 Cells.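 For cell number change: cells counted by Cell Tracker Red CMTPX staining in the red channel.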 The settings on record: BODIPY lipid droplet fluorescence, 18-24 h; for cell number change: measured here: cell count max response, cells fed with added oleic acid. The method in brief: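 Laser-scanning cytometry quantifies lipid droplet accumulation (500–530 nm total intensity; droplet/cell object ratio) in oleic acid-fed (400 uM added) Drosophila S3 cells treated with a concentration series. 20 uM Triacsin C defined 100% inhibition.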
(Quantitative high-throughput screening tests each substance at several concentrations.)

The mark [1] stands for this setting: measured here: cell number channel AC50, cells fed with added oleic acid.
Where [2] appears, read: measured here: lipid fluorescence (Fed channel) AC50, cells fed with added oleic acid.

For orientation: AC50 means the midpoint of the concentration-response curve, whichever way the signal moves.

Turning to `Cn1c(=O)[nH]c(=O)c2c1nc(N1CCN(Cc3ccccc3)CC1)n2CCSc1ncccn1`, the cell number change amounted to 5.19%. Moreover, under setting [1], the AC50 is 2.91 µM [falling, single point].

With `CC1(C)CC(=O)C=C(C(=O)N2CCCC(C(=O)c3cccc(Cl)c3)C2)O1` (configuration not stated), the cell number change is -10.3%. The AC50 under setting [2] was 29.1 µM [falling, single point].

For `COC(=O)CSc1nnc(-c2ccc(S(=O)(=O)NCc3ccccc3Cl)cc2)o1`, the cell number change is -12.4%. Further, the AC50 under setting [2] is 2.06 µM [falling, partial curve, poor fit].

For `O=C(N/N=C1/CCSC1)c1cccc([N+](=O)[O-])c1`, the cell number change is -52.5%. Further, the AC50 under setting [1] is 29.1 µM [falling, single point]. Moreover, the AC50 under setting [2] is 4.61 µM [rising, single point].

Turning to `Cc1ccc(Cn2ccc(NC(=O)c3cc(C(C)C)on3)n2)cc1`, the cell number change was determined as 20.4%. Also, the AC50 under setting [2] is 23.1 µM [falling, partial curve].

Consider `Cc1onc(-c2ccccc2)c1C(=O)Nc1ccc2c(C)cc(=O)oc2c1`, for which the cell number change was -12.4%.

Regarding `COc1ccc(/C=C(/NC(=O)c2ccco2)C(=O)N2CCCC2=O)cc1`, the cell number change is 24.6%. Under setting [2], the AC50 is 13 µM [rising, partial curve].

`CC(C)Cc1nnc(NC(=O)CCC(=O)NCCc2ccccc2)s1`: the cell number change was found to be 15%.

In the case of `CC1CCCCC12NC(=O)N(CC(=O)N1CCN(S(=O)(=O)/C=C/c3ccccc3)CC1)C2=O` (configuration not stated), the cell number change is -10.1%. Further, the AC50 under setting [2] is 6.51 µM [falling, single point].

Take `O=C(CCNS(=O)(=O)c1cccc2nonc12)Nc1ccc(Cl)cc1`: the cell number change amounted to 14.2%. Moreover, under setting [2], the AC50 is 0.517 µM [rising, partial curve, poor fit].

Consider `Fc1ccc(/C=N/Nc2ncnc3nc[nH]c23)cc1F`, for which the cell number change is -7.07%. Besides, under setting [2], the AC50 is 0.206 µM [falling, full curve, poor fit].

In the case of `CCn1c(SCC(=O)NCc2ccco2)nnc1-c1c[nH]c2ccccc12`, the cell number change is 13.3%.

On to `FC(F)(F)c1cccc(NC(=S)NC(c2ccccc2)c2ccccc2)c1`, for which the cell number change is -54.1%. The AC50 under setting [1] is 6.51 µM [falling, partial curve]. The AC50 under setting [2] was 5.17 µM [falling, partial curve].

For the compound `COC(=O)c1cc(=O)n(Cc2ccc3c(c2)OCO3)c(=Nc2ccc(F)cc2)s1`, the cell number change amounted to 33.5%. Also, under setting [1], the AC50 is 0.651 µM [rising, full curve, poor fit]. Besides, the concentration at half-maximal activity (AC50) under setting [2] is 2.31 µM [rising, partial curve].

`COc1cc2c(cc1OC)C(c1ccccc1O)NCC2` (configuration not stated): the cell number change came out at 2.21%. Also, under setting [2], the half-maximal activity concentration (AC50) was 23.1 µM [rising, partial curve].

As for `CC(C)c1nc2c(c(=O)n(C)c(=O)n2C)n1C`, the cell number change was -12.5%. Further, the AC50 under setting [2] was 0.291 µM [falling, full curve, poor fit].

As for `Cc1cc(NC(=O)c2cc3cccc([N+](=O)[O-])c3[nH]2)ccc1F`, the cell number change was found to be 0.763%. Moreover, the AC50 under setting [2] is 1.64 µM [rising, partial curve, poor fit].

With `CCOC(=O)C(=NC(C)CC)NNc1ccc(Br)cc1` (configuration not stated), the cell number change is -10.8%.

Consider `C/C(=N\Nc1nc(C(C)(C)C)cs1)c1ccc(O)cc1`, for which the cell number change is -26.7%. Further, under setting [1], the AC50 was 1.03 µM [falling, full curve, poor fit]. The AC50 under setting [2] is 0.651 µM [falling, full curve].

Take `COC(=O)c1c(NC(=O)CC2Nc3cc(C)c(C)cc3NC2=O)sc(C)c1C` (configuration not stated): the cell number change is 31.2%. In addition, the AC50 under setting [1] was 1.64 µM [rising, partial curve, poor fit].

As for `CCN(CC)CCNC(=O)CCN1N=C(c2ccccc2)CCC1=O`, the cell number change turned out to be 19.9%.

As for `CC(=O)N1N=C(c2ccccc2)CC1c1cccc([N+](=O)[O-])c1` (configuration not stated), the cell number change is 9.12%. The concentration at half-maximal activity (AC50) under setting [2] was 2.91 µM [falling, single point].

Turning to `Cc1cccnc1NC(=O)Nc1cccc(Cl)c1`, the cell number change is -12.3%.

As to `COC(=O)c1sc(-c2ccc(Cl)cc2)cc1NC(=O)c1ccccc1C(=O)O`, the cell number change came out at 5.67%. Besides, the AC50 under setting [2] is 5.8 µM [rising, full curve, poor fit].

For `CCN(c1ccc(NC(=O)COC(=O)C(C)N=C2NS(=O)(=O)c3ccccc32)cc1)C(C)C` (configuration not stated), the cell number change was -38%. The AC50 under setting [1] is 10.3 µM [falling, partial curve, poor fit].

For `COc1ccc(NC(=O)C2CCCN2S(=O)(=O)c2cccs2)c([N+](=O)[O-])c1` (configuration not stated), the cell number change is 65.5%. Besides, the AC50 under setting [1] was 16.4 µM [rising, partial curve].

In the case of `Clc1ccc(CNc2nnnn2-c2ccccc2)c(Cl)c1`, the cell number change was -6.66%.

`Cc1ccc(Oc2ccccc2NC(=O)CN2C(=O)NC3(CCCC3)C2=O)cc1`: the cell number change worked out at 17.9%. Besides, the AC50 under setting [1] is 0.517 µM [rising, partial curve, poor fit]. Also, the AC50 under setting [2] was 29.1 µM [rising, single point].

Regarding `Cc1cc(C)nc(NN2C(=O)/C(=C/c3ccc(O)cc3)SC2=S)n1`, the cell number change worked out at 16.9%. Under setting [2], the AC50 is 3.26 µM [rising, single point].

On to `Cc1cccc2cc(COC(=O)c3ccccn3)c(=O)[nH]c12`, for which the cell number change turned out to be 35.7%. Further, the concentration at half-maximal activity (AC50) under setting [1] is 0.184 µM [rising, full curve, poor fit]. For the same compound, the AC50 under setting [2] was 11.6 µM [rising, partial curve].

As for `COc1ccc(-n2cnnc2SCC(=O)NC2CCCc3ccccc32)cc1` (configuration not stated), the cell number change was 0.549%.

In the case of `N/C(=N\OC(=O)c1ccc(F)cc1)c1nonc1N`, the cell number change was -10%. For the same compound, the AC50 under setting [2] is 32.6 µM [rising, single point].

With `CC(C)c1ccccc1NC(=O)COc1ccc2c(=O)c(Oc3ccc4ccccc4c3)coc2c1`, the cell number change was -13.8%. For the same compound, the concentration at half-maximal activity (AC50) under setting [1] is 0.517 µM [falling, full curve, poor fit].

Regarding `CCc1ccc(OCC(=O)N/N=C/c2cc([N+](=O)[O-])ccc2N2CCOCC2)cc1`, the cell number change was 8.04%. The AC50 under setting [2] is 0.146 µM [rising, full curve, poor fit].

Turning to `CCN1CCN(C(CNS(=O)(=O)c2ccccc2)c2ccccc2)CC1` (configuration not stated), under setting [2], the AC50 was 6.51 µM [rising, single point].

As to `CCn1c(C)c(C)c2cc(C(=O)NCCc3ccco3)ccc21`, the cell number change came out at 12.5%. Besides, the AC50 under setting [2] is 29.1 µM [rising, single point].

Consider `CC(C)(C)OC(=O)N[C@@H](Cc1ccccc1)C(=O)N1CCC(C(=O)N[C@@H](Cc2c[nH]c3ccccc23)C(=O)O)CC1`, for which the cell number change was -19.4%.

For the compound `Cc1ccc(N=C2CCCCCN2C)c(C#N)c1`, the cell number change is -34%. Besides, under setting [1], the AC50 was 13 µM [falling, partial curve, poor fit]. In addition, the half-maximal activity concentration (AC50) under setting [2] is 11.6 µM [falling, partial curve, poor fit].

Take `O=C(Nc1cccc2c1CCCC2)c1ccco1`: the cell number change is -9.56%. Under setting [1], the AC50 is 7.31 µM [falling, single point].

Take `CC(C)(CNC(=O)C1CCCC1)CNC(=O)C1CCCC1`: the cell number change was 11.2%. Besides, under setting [2], the AC50 is 0.00461 µM [falling, full curve, poor fit].

Take `CC(Sc1nc2c(c(=O)[nH]1)CCCC2)C(=O)Nc1ccc(Br)cn1` (configuration not stated): the cell number change turned out to be 9.4%. The AC50 under setting [2] is 23.1 µM [falling, single point].

Turning to `Cc1ccc(F)c(NC(=S)Nc2cccc3ccccc23)c1`, the cell number change came to 27.2%. In addition, the AC50 under setting [2] is 35.5 µM [rising, single point].

On to `Cc1cc(NC(=O)CSc2nc(-c3ccccc3)c(C#N)c(=O)[nH]2)no1`, for which the cell number change was -1.43%. For the same compound, the AC50 under setting [2] is 2.59 µM [falling, partial curve].

With `Cn1c(NC(=O)c2cccc(Cn3cc(Cl)cn3)c2)nc2ccccc21`, the cell number change is -13.9%. Also, the AC50 under setting [2] was 0.731 µM [rising, full curve].

As for `Cc1cc(CC(=O)O)n(C)c1C(=O)c1ccc(Cl)cc1`, the cell number change was found to be 15.1%. The AC50 under setting [2] was 1.16 µM [rising, partial curve].

As to `Cc1cc(N)n2ncc(-c3cccc(Br)c3)c2n1`, the cell number change was -39.8%. The AC50 under setting [1] was 16.4 µM [falling, partial curve]. Under setting [2], the AC50 is 29.1 µM [falling, single point].

`COc1ccc(C(=O)C2CCCCC2=O)cc1` (configuration not stated): the cell number change is -8.93%. Further, the AC50 under setting [2] was 0.103 µM [falling, full curve, poor fit].

`Cc1cccc(NC(=O)CN2C(=O)c3ccccc3S2(=O)=O)n1`: the cell number change stood at 7.63%.

In the case of `Cc1ccc(OC(C)C(=O)N(C)Cc2ccccc2)c([N+](=O)[O-])n1` (configuration not stated), the cell number change is -8.65%. Moreover, the AC50 under setting [2] was 29.1 µM [falling, single point].

Regarding `COc1cccc(-n2c(O)c(C=NCc3ccccn3)c3ccccc3c2=O)c1`, the cell number change is 24%. For the same compound, the AC50 under setting [1] was 0.13 µM [rising, full curve, poor fit]. For the same compound, the AC50 under setting [2] was 0.092 µM [rising, full curve].

With `COc1ccc(C)cc1NC(=O)CN1C(=O)c2cccc3cccc1c23`, the AC50 reads like this: under setting [1], 1.3 µM [rising, full curve]; under setting [2], 29.1 µM [falling, single point].

As for `CN1C(=O)CC(N2CCN(CCN=CC3=C(O)CC(C)(C)CC3=O)CC2)C1=O` (configuration not stated), the cell number change was -34.8%. Under setting [1], the AC50 was 2.59 µM [falling, full curve]. For the same compound, the AC50 under setting [2] is 16.4 µM [falling, partial curve].

`O=C(CN1CCN(c2cccc(Cl)c2)CC1)Nc1ccc([N+](=O)[O-])cc1C(=O)Nc1ccccc1F`: the cell number change was -10.8%. In addition, the AC50 under setting [1] is 0.82 µM [falling, partial curve, poor fit]. The AC50 under setting [2] is 1.16 µM [falling, single point].

Turning to `COc1cc(OC)cc(C(=O)NN2CCCCC2)c1`, the cell number change is -81.6%. In addition, the AC50 under setting [1] is 32.6 µM [falling, single point]. Under setting [2], the half-maximal activity concentration (AC50) was 20.6 µM [falling, partial curve].

On to `CCOc1ccc(S(=O)(=O)Nc2cc(OC)ccc2OC)cc1`, for which the cell number change is -13.9%. Also, under setting [2], the AC50 is 6.51 µM [rising, single point].

Consider `COc1ccc(OCC(=O)Nc2c(C(=O)N3CCC(N4CCCCC4)CC3)oc3ccccc23)cc1`, for which the cell number change was 5.27%. Further, the AC50 under setting [1] is 0.0731 µM [rising, full curve, poor fit].

Turning to `Cc1ccc(N2C(=O)CC(SCC(=O)Nc3ccc(S(N)(=O)=O)cc3)C2=O)cc1` (configuration not stated), the cell number change was -3.25%. Also, the AC50 under setting [1] was 0.103 µM [falling, full curve, poor fit]. Besides, the AC50 under setting [2] is 0.146 µM [falling, full curve, poor fit].

On to `Cc1ccc2nc(SCC(=O)Nc3cccc(F)c3)nc(=O)n2c1`, for which the AC50 under setting [2] was 0.082 µM [falling, full curve, poor fit].
